Experimental data from patent US20160046678A1 (ZYNGENIA, published 2016).
No constants are given. Whether binding was seen depends on the method and setting. Some entries that bind do so weakly or less than the wild type.

T1: Angiopoietin-2 (Ang2) (human, UniProt O15123 19-496, biotin label in Examples 22-24)
T1 construct: also called rhAng2; recombinant Ang2
T1 sequence (looked up): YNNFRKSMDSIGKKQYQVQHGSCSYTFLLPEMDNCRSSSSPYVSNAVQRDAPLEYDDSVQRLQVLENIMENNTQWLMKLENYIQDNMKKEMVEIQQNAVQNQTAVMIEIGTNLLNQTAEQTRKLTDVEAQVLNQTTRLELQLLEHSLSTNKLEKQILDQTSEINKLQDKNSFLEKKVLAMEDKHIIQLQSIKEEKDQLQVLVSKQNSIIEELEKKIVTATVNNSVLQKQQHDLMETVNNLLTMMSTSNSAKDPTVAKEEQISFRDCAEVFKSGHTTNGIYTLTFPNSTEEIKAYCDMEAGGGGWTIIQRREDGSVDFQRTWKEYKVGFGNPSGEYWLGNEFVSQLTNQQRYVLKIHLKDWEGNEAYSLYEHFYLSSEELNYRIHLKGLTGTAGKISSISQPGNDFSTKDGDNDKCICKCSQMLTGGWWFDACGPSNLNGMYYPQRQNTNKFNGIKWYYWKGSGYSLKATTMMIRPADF


These binders were tested against T1, Angiopoietin-2 (Ang2) (assay: Example 48, method not detailed).

binding, binds:
FNEECYFYPNPPHCYGEY [ANG884], MGISFLDCYFFPNPQHCY [ANG837], ARSSQFECYFYPNPPHCY [ANG867], TSLDCYFYPNPPHCYETP [ANG911], SPPVFWECYFYPNPTHCY [ANG881], DTLDCYYFPNPPHCYSSQ [ANG907], YVMGGDDCYFYPNPPECY [ANG861], MLWDMSGCYFYPNPPHCY [ANG895], LDSECFFYPNPPHCYNTL [ANG872], LAFDLSDCYFYPNPPHCS [ANG883], ECYFYPNPPDCFYLHQRR [ANG898], QWNPHYHCFFYPNPPHCY [ANG909], GNIACYFYPNPPHCYNVH [ANG862], PPPSSYECYFYPNPAHCY [ANG847], PNQSNYDCYFYPNPPHCY [ANG882], AGHECYFYPNPPHCYSEQ [ANG849], SHTDCYYYPNPPHCYLEN [ANG848], IGYPFSDCYFYPNPPHCY [ANG874], SMSVYIDCFSYPNPPRCY [ANG840], YLHSFEDCYFYPNPAHCY [ANG857], AAVECLFYPNPPHCYERA [ANG877], LTIEHQDCYFYPNPPHCY [ANG858], LVVTAFDCYFYPNPPYCY [ANG885], SNVDCYFYPNPPNCFVHD [ANG879], YYYSYTHCYYYPNPTHCY [ANG834], DCYFYPNPTHCYLKGGFV [ANG841], SHFSFKDCYFYPNPAHCY [ANG903], DHSACYAFPNPSSCYNSR [ANG844], YGNECYFFPNPPHCYHRD [ANG906], PRPLVIDCYFFPNPPHCY [ANG901], AVLEHFDCYFYPNPPHCY [ANG894], SLRDCYFYPNPAHCRNNM [ANG904], FSPGEVDCYFYPNPPHCK [ANG889], LSLELSECYFFPNPPHCY [ANG891], ADTDCYFYPNPPHCYDIT [ANG890], GSRDCYFYPNPKYCYIQD [ANG853], WNFDCYFYPNPPLCYNME [ANG875], LLSVMQDCYFYPNPSHCY [ANG846], AGMNDFDCYFFPNPPHCF [ANG850], AWKDCFFYPNPSFCSYSS [ANG855], LQLECYYYPNPTHCYETR [ANG836], LGLRHYACYLYPNPPHCY [ANG866], DHVECYFYPNPLHCYKDR [ANG899], SKQDCYFYPNPSHCYLDQ [ANG896], PSLYELDCYFYPNPPHCY [ANG856], MTWFPNDCYFYPNPPYCY [ANG835], ALHDCYFYPNPQHCYQA [ANG887], PLNACYFYPNPPHCYFLK [ANG845], DCYFYPNPPHCYIEHKPS [ANG902], SDSFLRDCYFYPNPPHCY [ANG854], YPGPFTGCYFYPNPLQCY [ANG869], PSPYYSDCAWYPNPPYCY [ANG838], DDSDCFFYPNPPRCYETY [ANG832], SGMECYFFPNPPHCYDLK [ANG863], PYLDCAEYPNPLYCYESE [ANG873], YDLLLHDCYVFPNPPHCY [ANG897], SLNPSVDCYFYPNPAHCY [ANG886], NERDCYFYPNPPHCYQNG [ANG871], VLSFFQDCYFYPNPANCY [ANG880]
